{"sequences": {"note": "The chains behind the UniProt entries cited, without tags or fusion partners. Residues count along the entry.", "UniProt P46821, residues 2207-2468": "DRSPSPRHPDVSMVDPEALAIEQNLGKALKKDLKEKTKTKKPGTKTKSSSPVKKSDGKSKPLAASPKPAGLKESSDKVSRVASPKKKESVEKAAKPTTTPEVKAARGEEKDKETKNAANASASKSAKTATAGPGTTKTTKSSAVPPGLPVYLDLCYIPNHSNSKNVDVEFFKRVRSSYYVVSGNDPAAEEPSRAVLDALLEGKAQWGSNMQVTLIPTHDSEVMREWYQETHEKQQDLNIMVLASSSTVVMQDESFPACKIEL"}, "source": "paper PMC6731588", "molecular_target": "GST-MAP 1B-LC1 (microtubule-associated protein 1B light chain) (UniProt P46821)", "test": "pull-down; 50 μg GST-MAP 1B-LC1 or GST on glutathione-Sepharose beads incubated with A549 cell lysate (1 mg) in 1 mL bacterial lysis buffer, 12 h, 4 °C; four washes; western blot with anti-hnRNP K; only the target purified", "note": "No constants are given. Whether binding was seen depends on the method and setting. Binding seen in cells or lysates may run through a third protein. Some results given as binding are weak or reduced against the parent protein; the word gives no strength."}
{"substance": "heterogeneous nuclear ribonucleoprotein K (from UniProt P61978 1-463)", "values": [{"measurement": "binding", "result": "binds"}]}
